Reference: PubChem BioAssay AID686943 (Drosophila RNAi Screening Center, 2013)
The screen tested about 23,000 reagents; below is a random part of those that have a named target and a result. 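Extra replicates exist only for a retested subset of genes; insulin dose and duration not given; both raised and lowered dpERK matter.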 Reagents against one gene are numbered here. Not all columns of the deposit are shown. Not stated in the record: the amount of reagent, the time to read-out.

Aim: 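Fly genes whose loss alters ERK activation after insulin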 (primary screen)
System: Drosophila S2R+ haemocyte-like cells expressing YFP-tagged ERK (Rolled)
Reagents: long dsRNA against Drosophila genes
Treatment: insulin stimulation versus unstimulated cells; dose and duration not given
Measured: 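Antibody staining for doubly phosphorylated ERK divided by ERK-YFP signal, as plate z-scores, in insulin-treated and untreated cells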
Direction: replicate 1, z-score of dpERK with insulin: higher = more active ERK per ERK-YFP after insulin

The opening 2 entries as a preview:
CG11811: replicate 1, z-score of dpERK with insulin = 0.13
Prp19: replicate 1, z-score of dpERK with insulin = 0.94

Main list, from the start:
CG11811: replicate 1, z-score of dpERK with insulin = 0.13
Prp19: replicate 1, z-score of dpERK with insulin = 0.94
Flo1: replicate 1, z-score of dpERK with insulin = -0.39
htl: replicate 1, z-score of dpERK with insulin = 0.6
Cpr64Ac: replicate 1, z-score of dpERK with insulin = -0.05
CG13039: replicate 1, z-score of dpERK with insulin = 0.17
CG9547: replicate 1, z-score of dpERK with insulin = 0.3
sli #1: replicate 1, z-score of dpERK with insulin = 0.81
sli #2: replicate 1, z-score of dpERK with insulin = -1.09
CG40583 (retired record): replicate 1, z-score of dpERK with insulin = 0.11
Tep1: replicate 1, z-score of dpERK with insulin = 0.39
E(spl)m4-BFM: replicate 1, z-score of dpERK with insulin = 1.16
